Experimental data reported in article PMC5046136.
These are yes or no findings as the source states them, for the method shown. Binding seen in cells or lysates may run through a third protein. Some entries that bind do so weakly or less than the wild type.

Amino acid sequences for entries named in this document (tags omitted). Residues count along the entry.
UniProt Q8CG19, residues 24-1712: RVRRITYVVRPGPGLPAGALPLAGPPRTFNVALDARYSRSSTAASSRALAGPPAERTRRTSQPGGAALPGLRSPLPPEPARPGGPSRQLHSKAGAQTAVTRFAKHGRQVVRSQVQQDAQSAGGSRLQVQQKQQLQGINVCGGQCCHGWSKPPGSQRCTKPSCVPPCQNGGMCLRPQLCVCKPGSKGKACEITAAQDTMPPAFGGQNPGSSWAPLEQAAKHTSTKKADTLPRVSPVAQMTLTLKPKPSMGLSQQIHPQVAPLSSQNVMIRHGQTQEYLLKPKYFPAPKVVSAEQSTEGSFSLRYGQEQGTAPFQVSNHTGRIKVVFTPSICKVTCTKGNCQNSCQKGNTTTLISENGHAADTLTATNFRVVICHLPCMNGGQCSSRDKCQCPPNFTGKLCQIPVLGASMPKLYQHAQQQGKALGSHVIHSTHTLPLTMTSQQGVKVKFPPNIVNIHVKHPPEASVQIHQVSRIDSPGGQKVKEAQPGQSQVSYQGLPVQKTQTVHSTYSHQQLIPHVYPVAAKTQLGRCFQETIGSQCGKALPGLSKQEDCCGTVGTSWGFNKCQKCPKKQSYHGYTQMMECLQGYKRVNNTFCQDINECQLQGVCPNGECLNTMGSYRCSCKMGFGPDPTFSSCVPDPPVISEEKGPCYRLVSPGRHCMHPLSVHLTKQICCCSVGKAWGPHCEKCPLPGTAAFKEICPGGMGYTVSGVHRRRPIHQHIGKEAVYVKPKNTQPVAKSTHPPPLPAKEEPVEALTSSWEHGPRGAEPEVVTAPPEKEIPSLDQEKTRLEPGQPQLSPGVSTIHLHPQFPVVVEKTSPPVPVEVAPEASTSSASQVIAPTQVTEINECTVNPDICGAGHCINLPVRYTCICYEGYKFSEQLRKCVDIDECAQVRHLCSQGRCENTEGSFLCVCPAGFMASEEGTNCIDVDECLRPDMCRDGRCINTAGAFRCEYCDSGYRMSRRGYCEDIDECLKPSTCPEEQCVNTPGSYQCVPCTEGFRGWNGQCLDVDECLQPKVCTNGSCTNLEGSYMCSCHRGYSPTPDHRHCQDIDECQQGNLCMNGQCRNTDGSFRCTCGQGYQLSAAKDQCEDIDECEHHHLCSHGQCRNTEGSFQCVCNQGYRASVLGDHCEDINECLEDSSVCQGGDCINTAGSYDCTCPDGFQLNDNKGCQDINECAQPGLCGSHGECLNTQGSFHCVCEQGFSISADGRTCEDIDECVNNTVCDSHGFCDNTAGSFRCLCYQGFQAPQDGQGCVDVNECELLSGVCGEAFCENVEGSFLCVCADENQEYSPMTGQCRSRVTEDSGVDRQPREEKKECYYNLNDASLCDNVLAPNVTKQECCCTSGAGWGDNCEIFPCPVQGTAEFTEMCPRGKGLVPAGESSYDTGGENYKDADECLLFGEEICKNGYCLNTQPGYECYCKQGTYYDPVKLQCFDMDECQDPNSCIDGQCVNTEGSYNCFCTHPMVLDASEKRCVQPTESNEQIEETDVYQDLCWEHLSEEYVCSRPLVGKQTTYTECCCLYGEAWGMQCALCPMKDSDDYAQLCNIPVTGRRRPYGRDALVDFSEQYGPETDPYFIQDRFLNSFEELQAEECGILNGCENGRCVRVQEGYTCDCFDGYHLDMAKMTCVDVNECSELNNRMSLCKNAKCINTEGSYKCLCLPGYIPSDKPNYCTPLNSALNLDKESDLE

Biological target: Latent TGF-β binding protein-1 (mouse (endogenous in Swiss 3T3)) (UniProt Q8CG19)
Experiment: co-IP; LTBP-1 immunoprecipitated with Ab-39 from lysates of Swiss 3T3 cells induced (+) or non-induced (-) for TG2 expression; reducing SDS-PAGE, blot for LTBP-1 and TG2

B1: Transglutaminase-2 expressed in Swiss 3T3 fibroblasts (clone TG3) (enzyme, UniProt P21980 1-687)
chain: MAEELVLERCDLELETNGRDHHTADLCREKLVVRRGQPFWLTLHFEGRNYEASVDSLTFSVVTGPAPSQEAGTKARFPLRDAVEEGDWTATVVDQQDCTLSLQLTTPANAPIGLYRLSLEASTGYQGSSFVLGHFILLFNAWCPADAVYLDSEEERQEYVLTQQGFIYQGSAKFIKNIPWNFGQFEDGILDICLILLDVNPKFLKNAGRDCSRRSSPVYVGRVVSGMVNCNDDQGVLLGRWDNNYGDGVSPMSWIGSVDILRRWKNHGCQRVKYGQCWVFAAVACTVLRCLGIPTRVVTNYNSAHDQNSNLLIEYFRNEFGEIQGDKSEMIWNFHCWVESWMTRPDLQPGYEGWQALDPTPQEKSEGTYCCGPVPVRAIKEGDLSTKYDAPFVFAEVNADVVDWIQQDDGSVHKSINRSLIVGLKISTKSVGRDEREDITHTYKYPEGSSEEREAFTRANHLNKLAEKEETGMAMRIRVGQSMNMGSDFDVFAHITNNTAEEYVCRLLLCARTVSYNGILGPECGTKYLLNLNLEPFSEKSVPLCILYEKYRDCLTESNLIKVRALLVEPVINSYLLAERDLYLENPEIKIRILGEPKQKRKLVAEVSLQNPLPVALEGCTFTVEGAGLTEEQKTVEIPDPVEAGEEVKVRMDLLPLHMGLHKLVVNFESDKLKAVKGFRNVIIGPA
Question: Which binding does the source give for B1 here?
Answer: binds
